Measurements taken from PubChem BioAssay AID540256 (National Center for Advancing Translational Sciences (NCATS), 2011).
The campaign covered roughly 300,000 compounds. About 3,700 (1.2%) were called active. Inconclusive results, whose numbers are uncertain, are shown with a selection of clear calls. The call rests on the fitted dose curve; tested in HEK293 cells. Potencies of inconclusive entries are doubtful fits and often do not repeat.

Assay: qHTS for Inhibitors of binding or entry into cells for Lassa Virus; further: nearly all actives have a fitted effect of over 50% in size
Conditions: Lassa virus pseudotype entry inhibition, cell reporter; series mostly up to 37.9 µM
Potency means the concentration at half of the fitted maximal effect.

Compound	Potency
CCCCOc1ncnc2c1[nH]c1ccc(C)cc12	inconclusive: 11.2 µM [inhibitor, single point]
COc1ccc(/C=C\c2onc(C)c2S(=O)(=O)N2CCC(C(=O)Nc3cccc(OC)c3)CC2)cc1	inconclusive: 25.1 µM [inhibitor, single point]
O=C(c1cccc(C(F)(F)F)c1)C1CCCN(C(=O)CN2CCOC2=O)C1 (stereo not drawn)	inactive
CCOC(=O)CNC(=S)N(Cc1ccc(C)cc1)Cc1ccc(C)o1	inconclusive: 32.6 µM [inhibitor, partial curve, poor fit]
CCCn1c(O)c(N=NC(=O)c2cccnc2)c2cc(Br)ccc21	inconclusive: 0.562 µM [inhibitor, full curve, poor fit]
Cc1ccc(-n2nc(C)c(C(=O)O)c2-n2cccc2)cc1	inconclusive: 5.01 µM [activator, partial curve]
COc1ccc(CNC(=O)c2cc3ccccn3n2)cc1OC	inactive
Cc1ccc(NC(=S)NC(NC(=O)c2ccccc2C)C(Cl)(Cl)Cl)c(C)c1 (stereo not drawn)	inconclusive: 23.1 µM [inhibitor, single point]
C=C(C(C)=O)C(O)c1ccc2ccccc2c1 (stereo not drawn)	inconclusive: 0.531 µM [inhibitor, partial curve, poor fit]
CCC(C)NC(=O)CCC(=O)N1Cc2ccccc2Oc2ncccc21 (stereo not drawn)	inactive
COc1cc(NC(=O)Cn2c(=O)ccc3cc(S(=O)(=O)N4CCCC4)ccc32)cc(OC)c1	inconclusive: 10 µM [inhibitor, partial curve, poor fit]
O=C(OCc1ccc(Cl)c(Cl)c1)c1ccc[nH]1	inactive
CC(C)(C)NC(=O)c1oc2ccccc2c1NC(=O)c1ccccc1F	inconclusive: 35.5 µM [inhibitor, single point]
Cc1ccc(C)c(S(=O)(=O)N2CCN(C(=O)C3CCN(C(=O)c4ccc(F)cc4)CC3)CC2)c1	inactive
Cc1ccc2c(c1)C1CC(C)(O2)N(c2cccc(C(=O)NC3CCN(Cc4ccccc4)CC3)c2)C(=O)N1 (stereo not drawn)	inconclusive: 7.94 µM [inhibitor, partial curve]
O=C(CSc1ccc(F)cc1)NC12CC3CC(CC(C3)C1)C2	inactive
CC(/C=C/c1ccccc1F)=N\NC(=O)c1ccccc1	inconclusive: 1.26 µM [activator, single point]
CCOC(=O)N1CCN(C(=O)c2ccc(Cn3c(=S)[nH]c4ccc(Br)cc4c3=O)cc2)CC1	active: 3.98 µM
N=c1c2c(ncn1CCN1CCOCC1)Oc1cc(O)ccc1C2c1ccccc1 (stereo not drawn)	inconclusive: 35.5 µM [inhibitor, single point]
Cc1cc(=O)[nH]c(SCC(=O)Nc2ccc(F)cc2)c1C#N	inconclusive: 14.1 µM [inhibitor, single point]
Cn1nnnc1SCCCNCc1cccc(OCc2ccc(F)cc2)c1	inactive
CC(=O)Nc1cccc(Oc2ccc(-c3noc(C)n3)cc2)c1	inconclusive: 35.5 µM [inhibitor, single point]
COc1ccc(-n2c(C)cc(C3=NNC(=NC4CC4)SC3)c2C)cc1	inconclusive: 35.5 µM [inhibitor, single point]

Among those listed so far, these contain a Cl atom.
Compound	Potency
Cc1ccc(NC(=S)NC(NC(=O)c2ccccc2C)C(Cl)(Cl)Cl)c(C)c1 (stereo not drawn)	inconclusive: 23.1 µM [inhibitor, single point]
O=C(OCc1ccc(Cl)c(Cl)c1)c1ccc[nH]1	inactive

Later entries.

Compound	Potency
Cc1cccc(N2CCN(C(=O)C3CCN(c4ncnc5c4nc4n5CCCCC4)CC3)CC2C)c1 (stereo not drawn)	active: 10 µM
COc1ccc([N+](=O)[O-])cc1NC1CCN(C(=O)c2cccs2)CC1	inconclusive: 7.94 µM [inhibitor, partial curve, poor fit]
COc1ccc(C2CC(=O)c3cc(OC)c(OC)cc32)cc1OC (stereo not drawn)	inconclusive: 2.82 µM [inhibitor, partial curve, poor fit]
COc1ccccc1N1CCN(C(=O)c2ccccc2N(C)S(=O)(=O)c2ccc(C)cc2)CC1	inconclusive: 25.1 µM [inhibitor, single point]
CCOc1ccc(NC(=O)CSc2nnc(C)n2CC2CCCO2)cc1 (stereo not drawn)	inconclusive: 1.58 µM [inhibitor, partial curve, poor fit]
CS(=O)(=O)N(CC(=O)N1CCN(c2ccccc2F)CC1)c1cc(C(F)(F)F)ccc1Cl	inconclusive: 2.06 µM [inhibitor, partial curve, poor fit]
Cc1sc(NC(=O)c2ccc3ncsc3c2)c(C(N)=O)c1C	inconclusive: 8.91 µM [activator, partial curve, poor fit]
NS(=O)(=O)c1ccc(CCNCc2cc(Br)ccc2OCc2ccccc2F)cc1	inconclusive: 17.8 µM [inhibitor, single point]
CCCc1nc(SCC(=O)N2CCCC2)c2ccccc2n1	inconclusive: 7.3 µM [inhibitor, full curve, poor fit]
CCOP(=O)(OCC)Oc1cc(C)c(N(C)C)c(C)c1	inconclusive: 1.78 µM [inhibitor, full curve, poor fit]
Cc1c(C(=O)NCCc2ccccc2)oc2ccccc12	inconclusive: 20 µM [inhibitor, single point]
Cc1ccccc1CCNC(=O)C1CCN(S(=O)(=O)c2ccc3c(ccn3C)c2)CC1	inactive
O=c1c(-c2nnc(SCc3ccc(Cl)cc3)o2)cccn1Cc1ccccc1	inconclusive: 23.1 µM [inhibitor, single point]
O=c1cc(CSc2nc3ccccc3[nH]2)c2ccccc2[nH]1	inconclusive: 0.092 µM [inhibitor, full curve, poor fit]
COc1cc(-c2nnc(NC(=O)CS(=O)(=O)c3ccc(F)cc3)o2)cc(OC)c1OC	inactive
COc1ccc(C(=O)Nc2ccc3c(c2)nc2n3CCSC2)cc1	inactive
COc1ccc(NC(=O)c2cccnc2NCCc2ccccc2)cc1	inactive
CCOC(=O)c1ccccc1NC(=O)Cn1c(=O)n(Cc2nc(C)no2)c(=O)c2ccccc21	inactive
CN(c1ccccc1C(=O)O)S(=O)(=O)c1ccc2[nH]c(=O)oc2c1	inconclusive: 1.12 µM [activator, full curve, poor fit]
CN(C)c1ccc(C(CNS(=O)(=O)c2ccc(Cl)cc2)N2CCOCC2)cc1 (stereo not drawn)	inactive
N#CCC(=O)N/N=C\c1cccc(OC/C=C/c2ccccc2)c1	inconclusive: 7.08 µM [inhibitor, partial curve, poor fit]
Cc1cccc(-c2noc(CN(C(=O)c3ccc(Br)o3)C(C)C)n2)c1	inconclusive: 3.16 µM [inhibitor, partial curve, poor fit]
CC(C)CCn1c(Sc2nc3ccccc3s2)nc2c1c(=O)[nH]c(=O)n2C	inconclusive: 29.1 µM [inhibitor, single point]

Compound	Potency
O=C(NCc1ccccc1)C(=O)NCC(c1ccco1)S(=O)(=O)c1cccs1 (stereo not drawn)	inactive
COc1cc(NC(=O)c2cc3nc(-c4ccccc4)cc(-c4ccccc4)n3n2)cc(OC)c1OC	inconclusive: 29.1 µM [inhibitor, single point]
CCCCN(C(=O)c1ccc(-n2nc(C)cc2C)cc1)c1c(N)n(CCC)c(=O)[nH]c1=O	inactive
CC(C)(C)c1ccc(C(=O)CS(=O)(=O)c2ccccc2)cc1	inconclusive: 1.41 µM [activator, partial curve, poor fit]
CCS(=O)(=O)c1ncc(Cl)c(C(=O)NCc2ccc(OC)cc2)n1	inconclusive: 14.1 µM [inhibitor, single point]
COc1ccc(C(=O)NCCc2c[nH]c3ccccc23)cc1S(=O)(=O)N1CCCCC1C (stereo not drawn)	inconclusive: 35.5 µM [inhibitor, single point]
COc1ccc(S(=O)(=O)c2c(O)c3ccc(C(=O)Nc4ccccc4)cc3[nH]c2=O)cc1	inconclusive: 11.2 µM [activator, single point]
Cc1nn2c(=O)cc(COC(=O)c3cccs3)nc2s1	inconclusive: 2.51 µM [activator, full curve]
COc1ccc(C(CNC(=O)c2ccc(-c3ccccc3)cc2)N(C)C)cc1OC (stereo not drawn)	inconclusive: 35.5 µM [inhibitor, single point]
Cc1nn(C)cc1CN(C)C(=O)c1sc2cccc(Cl)c2c1Cl	inactive
O=C(CCC(=O)Nc1ccccc1)NNC(=O)c1ccccc1Cl	inactive
Cc1cc(C)c2c(CC(=O)Nc3ccccc3C(F)(F)F)coc2c1	inactive
C(=N\Nc1nc2ccccc2[nH]1)/c1c[nH]c2ccccc12	inconclusive: 8.91 µM [inhibitor, single point]
CCOc1ncccc1C(=O)OCC(=O)c1ccc(OC)c(OC)c1	inactive
Cc1c(C(=O)N(C)Cc2ccccc2)oc2c(Cl)cccc12	inactive
CCOC(=O)N1CCN(Cc2ccc(O)c3ncccc23)CC1	inconclusive: 28.2 µM [inhibitor, single point]
O=C(Nc1cccnc1)c1ccc(Cl)c(S(=O)(=O)N2CCCCCC2)c1	inactive
COc1ccccc1N1CCN(C(=O)C2CCC(Cn3c(=S)[nH]c4ccccc4c3=O)CC2)CC1 (stereo not drawn)	inactive
CSc1ccc(CCNC(=O)c2ccc3c(Cl)c4c(nc3c2)CCCC4)cc1	inconclusive: 6.31 µM [inhibitor, single point]
Cc1cc(C)nc(CCNC(=O)c2cc(COc3c(C)cccc3C)on2)n1	inconclusive: 35.5 µM [activator, partial curve, poor fit]
Cc1ccc(C(=O)N(CCC2=CCCCC2)c2c(N)n(Cc3ccccc3)c(=O)[nH]c2=O)o1	inconclusive: 20 µM [inhibitor, single point]
CCN1CCN(C(c2ccccc2Cl)c2c(O)cc(C)n(CCOC)c2=O)CC1 (stereo not drawn)	inactive
